Our source for the binding values is US20180244777A1 (NUMAB THERAPEUTICS, published 2018).

No constants are given. Whether binding was seen depends on the method and setting. Some results given as binding are weak or reduced against the parent protein; the word gives no strength.

For the test, the target named is HumanCD3 target sequence (SEQ ID NO: 46), as library of overlapping linear and CLIPS peptides (human). Nature of the test: CLIPS and linear peptide library ELISA.

B1: clone-03 (antibody, V domains shown)
VH: QSLEESGGRLVTPGTPLTLTCTVSGFPLNRYAMLWVRQAPGKGLEWIGLITRADKKYYASWAKGRFTISKTSTTVDLEITGPTTEDTATYFCARRHYNTDGYPIAIGDLWGPGTLVTVSS
VL: AQVLTQTPSSVSAAVGGTVTISCQSNENIYSNNRLSWFQQKPGQPPNQLIYSASSLASGVPSRFKGSGSGTQFTLTISDLECDDAATYYCQGEFNCNSADCFTFGGGTEVVVKG
notes: Recombinant rabbit IgG; also called Clone 3
Consider B1, for which the binding result is reported as “binds”.

B2: clone-06 (antibody, V domains shown)
VH: QSVEESGGRLVTPGTPLTLTCTVSGFPLSSYAMIWVRQAPGKGLEWIGMILRAGNIYYASWVKGRVTISKTSTTVDLKITSPTTEDTATYFCARRHYNREGYPIGIGDLWGPGTLVTVSS
VL: AQVLTQTPSSVSAAVGGTVTISCQSSESVYNNKRLSWFQQKPGQPPKQLIYTASSLASGVPSRFKGSGSGTQFTLTISDLECDDAATYYCQGEFTCSNADCFTFGGGTEVVVKG
notes: Recombinant rabbit IgG; also called Clone 6
Regarding B2, the binding entry is recorded as “binds”.

B3: clone-02 (antibody, V domains shown)
VH: QSLEESGGRLVTPGTPLTLTCTVSGFPLSAYAMIWVRQAPGKGLEWIGMIIRSGTVYYANWAKGRFTISKTSTTVDLKITSPTTEDTATYFCARRHYNADGYPIGIGDLWGPGTLVTVSS
VL: AQVLTQTPSSVSAVVGGTVTISCQSSESVYSNNRLSWFQQKPGQPPKLLIYSASTLASGVPSRFKGSGSGTQFTLTITDLECDDAATYFCQGEFSCSSVDCFSFGGGTEVVVKG
notes: Recombinant rabbit IgG; also called Clone 2
Consider B3, for which the binding entry is listed as “binds”.

B4: clone-04 (antibody, V domains shown)
VH: QSLEESGGRLVKPDETLTLTCTVSGFPLSSYAMGWFRQAPGKGLEWIGMILRSDNTYYASWAKGRFTISKTSTTVDLKITSPTTEDTATYFCARRHYNASGNPIAIGDLWGPGTLVTVSS
VL: AQVLTQTPSSVSAAVGGTVTINCQSSQSVYNNNRLSWFQQKPGQPPKLLIYTTSSLASGVPSRFKGSGSGTEFTLTISDLECADAATYYCQGEFSCSRADCFNFGGGTEVVVKG
notes: Recombinant rabbit IgG; also called Clone 4
Turning to B4, the binding entry was “binds”.
